Source: ChEMBL document CHEMBL4715760, “Balancing potency, metabolic stability and permeability in pyrrolopyrimidine-based EGFR inhibitors” (Eur J Med Chem, 2016)
In brackets after ≈: the same amount, converted by molar mass.

Protein sequences, listed by entry. Tags and fused reporters are not part of them. Lines headed by an entry give the natural chain unless they say otherwise; changes in a name come on top.
UniProt Q12809: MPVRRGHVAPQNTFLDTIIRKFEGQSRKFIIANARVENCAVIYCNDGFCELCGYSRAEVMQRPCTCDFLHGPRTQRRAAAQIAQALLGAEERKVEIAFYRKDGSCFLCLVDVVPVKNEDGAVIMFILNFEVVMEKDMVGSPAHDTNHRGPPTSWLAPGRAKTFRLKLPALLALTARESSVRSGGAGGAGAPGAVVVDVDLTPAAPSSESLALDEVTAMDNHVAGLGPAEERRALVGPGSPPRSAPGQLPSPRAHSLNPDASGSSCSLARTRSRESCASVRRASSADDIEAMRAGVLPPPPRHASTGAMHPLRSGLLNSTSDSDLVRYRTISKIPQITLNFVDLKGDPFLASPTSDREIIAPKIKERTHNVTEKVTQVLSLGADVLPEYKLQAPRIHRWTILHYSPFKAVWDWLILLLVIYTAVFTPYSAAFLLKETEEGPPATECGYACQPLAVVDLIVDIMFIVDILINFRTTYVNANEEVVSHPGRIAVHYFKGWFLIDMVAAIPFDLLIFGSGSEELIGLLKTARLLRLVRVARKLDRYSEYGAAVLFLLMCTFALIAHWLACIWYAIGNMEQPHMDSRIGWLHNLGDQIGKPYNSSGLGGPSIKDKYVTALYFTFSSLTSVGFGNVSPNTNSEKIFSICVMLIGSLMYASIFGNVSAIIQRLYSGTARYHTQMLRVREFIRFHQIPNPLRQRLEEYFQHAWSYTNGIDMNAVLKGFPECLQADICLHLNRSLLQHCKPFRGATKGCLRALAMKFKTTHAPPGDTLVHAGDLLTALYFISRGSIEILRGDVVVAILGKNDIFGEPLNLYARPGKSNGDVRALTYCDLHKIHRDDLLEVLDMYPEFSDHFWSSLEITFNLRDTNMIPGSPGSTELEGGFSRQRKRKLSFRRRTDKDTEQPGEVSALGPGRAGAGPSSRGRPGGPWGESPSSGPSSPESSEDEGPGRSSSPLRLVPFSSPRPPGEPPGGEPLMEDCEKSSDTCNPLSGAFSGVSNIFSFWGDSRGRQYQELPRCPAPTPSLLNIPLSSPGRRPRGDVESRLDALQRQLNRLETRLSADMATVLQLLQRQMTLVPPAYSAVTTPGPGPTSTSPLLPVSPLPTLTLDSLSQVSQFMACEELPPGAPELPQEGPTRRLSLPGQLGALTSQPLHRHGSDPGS

Columns and labels:
[1] = molecular target: Voltage-gated inwardly rectifying potassium channel KCNH2 (Homo sapiens, UniProt Q12809); assay: Inhibition of human ERG expressed in CHO cells at -80 mV holding potential by IonWorks patch-clamp electrophysiology assay
[2] = physchem; conditions: buffer, pH 7.4

`OCc1ccc(-c2cc3c(N[C@H](CO)c4ccccc4)ncnc3[nH]2)cc1` showed an IC50 [1] of over 25 µM and a solubility kinetic at 2 h [2] of 37.5 µM (≈ 13.5 µg/mL).
